This passage reports binding results from PMC4830570, “CD36 Differently Regulates Macrophage Responses to Smooth and Rough Lipopolysaccharide” (PLoS ONE, 2016).

Chains of the proteins cited; added tags and fusions are not shown.
UniProt Q08857: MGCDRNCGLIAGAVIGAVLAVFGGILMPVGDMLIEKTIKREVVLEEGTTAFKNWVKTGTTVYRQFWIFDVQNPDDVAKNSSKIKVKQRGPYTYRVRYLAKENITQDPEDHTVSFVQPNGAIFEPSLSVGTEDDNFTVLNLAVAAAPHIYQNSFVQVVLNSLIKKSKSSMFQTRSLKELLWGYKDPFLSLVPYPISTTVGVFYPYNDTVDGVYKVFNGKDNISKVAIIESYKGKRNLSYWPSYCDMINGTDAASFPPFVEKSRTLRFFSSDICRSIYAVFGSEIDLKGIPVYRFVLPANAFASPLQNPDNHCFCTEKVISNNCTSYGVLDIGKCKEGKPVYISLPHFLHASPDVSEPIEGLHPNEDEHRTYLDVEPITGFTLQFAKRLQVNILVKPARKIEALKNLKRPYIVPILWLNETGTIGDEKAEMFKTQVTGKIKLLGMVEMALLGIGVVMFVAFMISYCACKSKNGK

The target of assay [1] is T1, recombinant mouse CD14 tagged with the Fc fragment of human IgG1 (mouse) (UniProt P10810).
T1 sequence: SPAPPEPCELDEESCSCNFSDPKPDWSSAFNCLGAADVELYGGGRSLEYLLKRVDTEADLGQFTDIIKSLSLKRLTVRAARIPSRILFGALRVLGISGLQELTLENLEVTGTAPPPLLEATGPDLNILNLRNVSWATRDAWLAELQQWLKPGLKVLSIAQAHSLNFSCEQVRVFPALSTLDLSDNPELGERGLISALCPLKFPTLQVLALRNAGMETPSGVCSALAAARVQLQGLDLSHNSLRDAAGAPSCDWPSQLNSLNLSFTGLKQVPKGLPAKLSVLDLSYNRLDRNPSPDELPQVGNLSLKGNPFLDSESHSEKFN
In words: ELISA; receptor (5 μg/ml) adsorbed to plate; soluble rLBP at different concentrations, with or without 1 μg/ml S-LPS, 90 min at 37°C in FCS-PBS (10% FCS in PBS); bound rLBP detected with HRP-anti-6×Histidine; both purified. Background: An ELISA detects its analyte on a solid surface through an enzyme-linked reagent.

The target in assay [2] is CD36 on the surface of mouse peritoneal exudate macrophages (mouse (endogenous in peritoneal exudate macrophages)) (UniProt Q08857). In words: cellular ELISA; 5 μg/ml rCD14 without LPS on adherent PEMs, 50 min at 37°C in FCS-RPMI; bound rCD14 detected with HRP-anti-Fc; only the binder purified.
For assay [3] the target is unchanged. Put plainly: cellular ELISA; rCD14 with 200 ng/ml S-LPS on adherent PEMs, 40 min co-incubation at 37°C, in the absence of serum; detected with HRP-anti-Fc; only the binder purified.

Results are given in words; binding and its absence hold for the method and conditions named. Some entries that bind do so weakly or less than the wild type. Tags and fused reporters may be left off the sequences shown.

B1: recombinant mouse LPS-binding protein (protein, UniProt Q61805 25-481)
chain: GVNPGVVARITDKGLAYAAKEGLVALQRELYKITLPDFSGDFKIKAVGRGQYEFHSLEIQNCELRGSSLKLLPGQGLSLAISDSSIGVRGKWKVRKSFLKLHGSFDLDVKGVTISVDLLLGMDPSGRPTVSASGCSSRICDLDVHISGNVGWLLNLFHNQIESKLQKVLENKVCEMIQKSVTSDLQPYLQTLPVTAEIDNVLGIDYSLVAAPQAKAQVLDVMFKGEIFNRNHRSPVATPTPTMSLPEDSKQMVYFAISDYAFNIASRVYHQAGYLNFSITDDMLPHDSGIRLNTKAFRPFTPQIYKKYPDMKLELLGTVVSAPILNVSPGNLSLAPQMEIEGFVILPTSAREPVFRLGVVTNVFASLTFNNSKVTGMLHPDKAQVRLIESKVGMFNVNLFQAFLNYYLLNSLYPDVNAELAQGFPLPLPRHIQLHDLDFQIRKDFLYLGANVQYMRV
On to B1, for which the binding entry in assay [1] was “binds weakly”.

B2: recombinant mouse CD14 tagged with the Fc fragment of human IgG1 (Fc fusion, UniProt P10810 16-336, looked up)
chain: T1 sequence
notes: CD14, mouse, recombinant soluble receptor from R&D Systems; also called rCD14; source: bought: R&D Systems
Turning to B2, the binding result is reported as “binds weakly” in assay [2] and “binds” in assay [3].
